Data on six molecules can be found in publication PMC6713327.

The target in test [1] is T1, FANCA (human (endogenous in 293FT and EndoC-βH3)) (UniProt O15360).
T1 sequence: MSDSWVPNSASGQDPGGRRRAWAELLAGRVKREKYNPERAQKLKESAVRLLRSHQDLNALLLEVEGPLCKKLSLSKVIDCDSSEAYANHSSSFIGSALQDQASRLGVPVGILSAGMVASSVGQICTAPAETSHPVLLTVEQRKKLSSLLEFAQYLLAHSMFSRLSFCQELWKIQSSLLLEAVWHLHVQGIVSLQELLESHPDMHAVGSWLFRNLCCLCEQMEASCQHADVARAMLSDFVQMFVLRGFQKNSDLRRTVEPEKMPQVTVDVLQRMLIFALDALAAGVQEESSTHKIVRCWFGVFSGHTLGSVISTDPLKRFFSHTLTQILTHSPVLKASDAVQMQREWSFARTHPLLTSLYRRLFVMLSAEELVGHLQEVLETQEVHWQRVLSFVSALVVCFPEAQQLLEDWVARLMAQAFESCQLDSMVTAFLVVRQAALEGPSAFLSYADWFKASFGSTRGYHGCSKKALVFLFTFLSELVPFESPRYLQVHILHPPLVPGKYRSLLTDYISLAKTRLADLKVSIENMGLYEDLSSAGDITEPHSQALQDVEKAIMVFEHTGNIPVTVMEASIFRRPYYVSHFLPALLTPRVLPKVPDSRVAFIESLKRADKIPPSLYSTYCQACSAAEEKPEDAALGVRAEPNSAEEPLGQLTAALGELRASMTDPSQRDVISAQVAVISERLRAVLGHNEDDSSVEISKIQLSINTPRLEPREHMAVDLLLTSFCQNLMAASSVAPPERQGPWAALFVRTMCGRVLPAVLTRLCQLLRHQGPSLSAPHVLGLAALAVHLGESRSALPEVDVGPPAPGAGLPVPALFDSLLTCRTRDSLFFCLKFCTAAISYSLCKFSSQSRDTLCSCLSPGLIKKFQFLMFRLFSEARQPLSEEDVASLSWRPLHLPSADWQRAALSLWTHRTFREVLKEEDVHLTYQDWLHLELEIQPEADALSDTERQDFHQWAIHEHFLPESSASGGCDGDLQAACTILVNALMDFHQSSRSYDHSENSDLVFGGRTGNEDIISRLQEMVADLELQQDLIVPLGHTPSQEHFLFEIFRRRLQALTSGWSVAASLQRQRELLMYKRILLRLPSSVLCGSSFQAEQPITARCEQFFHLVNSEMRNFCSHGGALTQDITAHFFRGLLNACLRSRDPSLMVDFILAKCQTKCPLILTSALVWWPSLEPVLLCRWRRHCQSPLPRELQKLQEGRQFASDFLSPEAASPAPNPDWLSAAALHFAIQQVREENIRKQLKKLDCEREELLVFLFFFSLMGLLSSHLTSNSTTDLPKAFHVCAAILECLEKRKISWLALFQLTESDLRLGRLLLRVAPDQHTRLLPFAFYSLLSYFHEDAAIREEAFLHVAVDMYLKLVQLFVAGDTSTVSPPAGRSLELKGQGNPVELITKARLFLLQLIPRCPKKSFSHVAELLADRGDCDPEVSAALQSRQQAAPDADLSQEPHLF
The experiment in a line: affinity purification with mass spectrometry; endogenous FANCA precipitated from lysate of EndoC-βH3 cells cultured in 5 mM or 20 mM glucose, anti-FANCA antibody coupled to Dynabeads, 2 h at 4°C; LC-MS/MS, SAINT (BFDR ≤ 0.05, SAINT score = 1.0); biological duplicates.

In test [2] the target is T1, FANCA (human (endogenous in 293FT and EndoC-βH3)). The experiment in a line: affinity purification with mass spectrometry; endogenous FANCA precipitated from 293FT lysate (NETN buffer) with anti-FANCA antibody coupled to Dynabeads, 2 h at 4°C; rabbit IgG as negative control; LC-MS/MS, SAINT (BFDR ≤ 0.05, SAINT score ≥ 0.8); biological duplicates.

These are yes or no findings as the source states them, for the method shown. Binding seen in cells or lysates may run through a third protein. A yes stands for co-enrichment or nearness to the bait. Other partners may have been found.

B1: SEC24B (protein, UniProt O95487 1-1268)
chain: MSAPAGSSHPAASARIPPKFGGAAVSGAAAPAGPGAGPAPHQQNGPAQNQMQVPSGYGLHHQNYIAPSGHYSQGPGKMTSLPLDTQCGDYYSALYTVPTQNVTPNTVNQQPGAQQLYSRGPPAPHIVGSTLGSFQGAASSASHLHTSASQPYSSFVNHYNSPAMYSASSSVASQGFPSTCGHYAMSTVSNAAYPSVSYPSLPAGDTYGQMFTSQNAPTVRPVKDNSFSGQNTAISHPSPLPPLPSQQHHQQQSLSGYSTLTWSSPGLPSTQDNLIRNHTGSLAVANNNPTITVADSLSCPVMQNVQPPKSSPVVSTVLSGSSGSSSTRTPPTANHPVEPVTSVTQPSELLQQKGVQYGEYVNNQASSAPTPLSSTSDDEEEEEEDEEAGVDSSSTTSSASPMPNSYDALEGGSYPDMLSSSASSPAPDPAPEPDPASAPAPASAPAPVVPQPSKMAKPFGYGYPTLQPGYQNATAPLISGVQPSNPVYSGFQQYPQQYPGVNQLSSSIGGLSLQSSPQPESLRPVNLTQERNILPMTPVWAPVPNLNADLKKLNCSPDSFRCTLTNIPQTQALLNKAKLPLGLLLHPFRDLTQLPVITSNTIVRCRSCRTYINPFVSFIDQRRWKCNLCYRVNDVPEEFMYNPLTRSYGEPHKRPEVQNSTVEFIASSDYMLRPPQPAVYLFVLDVSHNAVEAGYLTILCQSLLENLDKLPGDSRTRIGFMTFDSTIHFYNLQEGLSQPQMLIVSDIDDVFLPTPDSLLVNLYESKELIKDLLNALPNMFTNTRETHSALGPALQAAFKLMSPTGGRVSVFQTQLPSLGAGLLQSREDPNQRSSTKVVQHLGPATDFYKKLALDCSGQQTAVDLFLLSSQYSDLASLACMSKYSAGCIYYYPSFHYTHNPSQAEKLQKDLKRYLTRKIGFEAVMRIRCTKGLSMHTFHGNFFVRSTDLLSLANINPDAGFAVQLSIEESLTDTSLVCFQTALLYTSSKGERRIRVHTLCLPVVSSLADVYAGVDVQAAICLLANMAVDRSVSSSLSDARDALVNAVVDSLSAYGSTVSNLQHSALMAPSSLKLFPLYVLALLKQKAFRTGTSTRLDDRVYAMCQIKSQPLVHLMKMIHPNLYRIDRLTDEGAVHVNDRIVPQPPLQKLSAEKLTREGAFLMDCGSVFYIWVGKGCDNNFIEDVLGYTNFASIPQKMTHLPELDTLSSERARSFITWLRDSRPLSPILHIVKDESPAKAEFFQHLIEDRTEAAFSYYEFLLHVQQQICK
Consider B1, for which, in test [1], the binding entry was “binds”.

B2: ATG4B (protein, UniProt Q9Y4P1 1-393)
chain: MDAATLTYDTLRFAEFEDFPETSEPVWILGRKYSIFTEKDEILSDVASRLWFTYRKNFPAIGGTGPTSDTGWGCMLRCGQMIFAQALVCRHLGRDWRWTQRKRQPDSYFSVLNAFIDRKDSYYSIHQIAQMGVGEGKSIGQWYGPNTVAQVLKKLAVFDTWSSLAVHIAMDNTVVMEEIRRLCRTSVPCAGATAFPADSDRHCNGFPAGAEVTNRPSPWRPLVLLIPLRLGLTDINEAYVETLKHCFMMPQSLGVIGGKPNSAHYFIGYVGEELIYLDPHTTQPAVEPTDGCFIPDESFHCQHPPCRMSIAELDPSIAVGFFCKTEDDFNDWCQQVKKLSLLGGALPMFELVELQPSHLACPDVLNLSLDSSDVERLERFFDSEDEDFEILSL
As for B2, in test [1], the binding entry is reported as “binds”.

B3: RAD17 (protein, UniProt O75943 1-681)
chain: MSKTFLRPKVSSTKVTDWVDPSFDDFLECSGVSTITATSLGVNNSSHRRKNGPSTLESSRFPARKRGNLSSLEQIYGLENSKEYLSENEPWVDKYKPETQHELAVHKKKIEEVETWLKAQVLERQPKQGGSILLITGPPGCGKTTTLKILSKEHGIQVQEWINPVLPDFQKDDFKGMFNTESSFHMFPYQSQIAVFKEFLLRATKYNKLQMLGDDLRTDKKIILVEDLPNQFYRDSHTLHEVLRKYVRIGRCPLIFIISDSLSGDNNQRLLFPKEIQEECSISNISFNPVAPTIMMKFLNRIVTIEANKNGGKITVPDKTSLELLCQGCSGDIRSAINSLQFSSSKGENNLRPRKKGMSLKSDAVLSKSKRRKKPDRVFENQEVQAIGGKDVSLFLFRALGKILYCKRASLTELDSPRLPSHLSEYERDTLLVEPEEVVEMSHMPGDLFNLYLHQNYIDFFMEIDDIVRASEFLSFADILSGDWNTRSLLREYSTSIATRGVMHSNKARGYAHCQGGGSSFRPLHKPQWFLINKKYRENCLAAKALFPDFCLPALCLQTQLLPYLALLTIPMRNQAQISFIQDIGRLPLKRHFGRLKMEALTDREHGMIDPDSGDEAQLNGGHSAEESLGEPTQATVPETWSLPLSQNSASELPASQPQPFSAQGDMEENIIIEDYESDGT
In the case of B3, in test [2], the binding entry was “binds”.

B4: FAAP20 (protein, UniProt Q6NZ36 1-180)
chain: MEAARRPRLGLSRRRPRPAGGPSGGRPWFLLGGDERERLWAELLRTVSPELILDHEVPSLPAFPGQEPRCGPEPTEVFTVGPKTFSWTPFPPDLWGPGRSYRLLHGAGGHLESPARSLPQRPAPDPCRAPRVEQQPSVEGAAALRSCPMCQKEFAPRLTQLDVDSHLAQCLAESTEDVTW
Take B4: the binding entry in test [2] is on record as “binds”.

B5: PREB (protein, UniProt Q9HCU5 1-417)
chain: MGRRRAPELYRAPFPLYALQVDPSTGLLIAAGGGGAAKTGIKNGVHFLQLELINGRLSASLLHSHDTETRATMNLALAGDILAAGQDAHCQLLRFQAHQQQGNKAEKAGSKEQGPRQRKGAAPAEKKCGAETQHEGLELRVENLQAVQTDFSSDPLQKVVCFNHDNTLLATGGTDGYVRVWKVPSLEKVLEFKAHEGEIEDLALGPDGKLVTVGRDLKASVWQKDQLVTQLHWQENGPTFSSTPYRYQACRFGQVPDQPAGLRLFTVQIPHKRLRQPPPCYLTAWDGSNFLPLRTKSCGHEVVSCLDVSESGTFLGLGTVTGSVAIYIAFSLQCLYYVREAHGIVVTDVAFLPEKGRGPELLGSHETALFSVAVDSRCQLHLLPSRRSVPVWLLLLLCVGLIIVTILLLQSAFPGFL
Consider B5, for which the binding result in test [1] is given as “binds”.

B6: ATG9A (protein, UniProt Q7Z3C6 1-839)
chain: MAQFDTEYQRLEASYSDSPPGEEDLLVHVAEGSKSPWHHIENLDLFFSRVYNLHQKNGFTCMLIGEIFELMQFLFVVAFTTFLVSCVDYDILFANKMVNHSLHPTEPVKVTLPDAFLPAQVCSARIQENGSLITILVIAGVFWIHRLIKFIYNICCYWEIHSFYLHALRIPMSALPYCTWQEVQARIVQTQKEHQICIHKRELTELDIYHRILRFQNYMVALVNKSLLPLRFRLPGLGEAVFFTRGLKYNFELILFWGPGSLFLNEWSLKAEYKRGGQRLELAQRLSNRILWIGIANFLLCPLILIWQILYAFFSYAEVLKREPGALGARCWSLYGRCYLRHFNELEHELQSRLNRGYKPASKYMNCFLSPLLTLLAKNGAFFAGSILAVLIALTIYDEDVLAVEHVLTTVTLLGVTVTVCRSFIPDQHMVFCPEQLLRVILAHIHYMPDHWQGNAHRSQTRDEFAQLFQYKAVFILEELLSPIVTPLILIFCLRPRALEIIDFFRNFTVEVVGVGDTCSFAQMDVRQHGHPQWLSAGQTEASVYQQAEDGKTELSLMHFAITNPGWQPPRESTAFLGFLKEQVQRDGAAASLAQGGLLPENALFTSIQSLQSESEPLSLIANVVAGSSCRGPPLPRDLQGSRHRAEVASALRSFSPLQPGQAPTGRAHSTMTGSGVDARTASSGSSVWEGQLQSLVLSEYASTEMSLHALYMHQLHKQQAQAEPERHVWHRRESDESGESAPDEGGEGARAPQSIPRSASYPCAAPRPGAPETTALHGGFQRRYGGITDPGTVPRVPSHFSRLPLGGWAEDGQSASRHPEPVPEEGSEDELPPQVHKV
Take B6: the binding entry in test [1] was “binds”.
